This note sets out measurements from paper PMC7195483.

Positions count from the first letter of the chain named. Names and notes keep the numbering of the source. No constants are given. Whether binding was seen depends on the method and setting. For some of these results: Binding seen in cells or lysates may run through a third protein. Some entries that bind do so weakly or less than the wild type. Sequences can lack the tags named with a protein.

Test [1] deals with T1, FLAG-tagged full-length Set1 (S. cerevisiae) (UniProt P38827).
T1 sequence: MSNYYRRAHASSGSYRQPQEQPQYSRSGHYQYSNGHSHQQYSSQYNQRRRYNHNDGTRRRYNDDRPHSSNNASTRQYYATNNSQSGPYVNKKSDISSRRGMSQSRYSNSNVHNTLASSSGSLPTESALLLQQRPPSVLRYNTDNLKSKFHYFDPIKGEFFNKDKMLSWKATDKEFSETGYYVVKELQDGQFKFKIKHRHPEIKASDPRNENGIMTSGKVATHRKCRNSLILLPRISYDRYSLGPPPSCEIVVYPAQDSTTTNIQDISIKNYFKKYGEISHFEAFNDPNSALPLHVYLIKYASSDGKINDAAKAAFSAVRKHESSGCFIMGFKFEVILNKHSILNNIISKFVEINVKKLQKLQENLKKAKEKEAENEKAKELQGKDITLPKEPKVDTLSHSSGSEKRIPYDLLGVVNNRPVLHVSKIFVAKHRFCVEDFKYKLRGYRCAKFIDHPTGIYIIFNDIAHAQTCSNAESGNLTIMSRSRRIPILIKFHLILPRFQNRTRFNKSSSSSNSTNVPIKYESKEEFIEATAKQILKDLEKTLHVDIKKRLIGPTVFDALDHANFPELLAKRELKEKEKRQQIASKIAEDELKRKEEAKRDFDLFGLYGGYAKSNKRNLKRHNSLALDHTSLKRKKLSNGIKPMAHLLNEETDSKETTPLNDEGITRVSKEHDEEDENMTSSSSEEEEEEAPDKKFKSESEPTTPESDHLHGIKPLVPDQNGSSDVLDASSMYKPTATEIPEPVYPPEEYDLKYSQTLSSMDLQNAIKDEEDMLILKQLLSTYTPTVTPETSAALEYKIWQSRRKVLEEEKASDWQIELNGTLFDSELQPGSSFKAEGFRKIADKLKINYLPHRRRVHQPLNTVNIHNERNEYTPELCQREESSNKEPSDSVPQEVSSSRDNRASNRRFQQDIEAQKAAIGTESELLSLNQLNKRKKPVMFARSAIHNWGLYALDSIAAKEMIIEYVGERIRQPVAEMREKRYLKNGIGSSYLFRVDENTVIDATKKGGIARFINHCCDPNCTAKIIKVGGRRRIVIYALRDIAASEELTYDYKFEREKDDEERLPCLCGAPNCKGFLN
Briefly: co-IP; yeast whole-cell lysate (3 mg), anti-DYKDDDDK agarose beads overnight at 4 °C, 50 mM HEPES-KOH pH 7.5, 150 mM NaCl, 0.1% Triton X-100; immunoblot; set1Δ cells, also swd2Δ, paf1Δ, rtf1Δ and bre1Δ backgrounds.

The target of test [2] is T2, Set1 fragment F1 (aa 1–236) fused to Gal4 BD (S. cerevisiae) (UniProt P38827).
T2 sequence: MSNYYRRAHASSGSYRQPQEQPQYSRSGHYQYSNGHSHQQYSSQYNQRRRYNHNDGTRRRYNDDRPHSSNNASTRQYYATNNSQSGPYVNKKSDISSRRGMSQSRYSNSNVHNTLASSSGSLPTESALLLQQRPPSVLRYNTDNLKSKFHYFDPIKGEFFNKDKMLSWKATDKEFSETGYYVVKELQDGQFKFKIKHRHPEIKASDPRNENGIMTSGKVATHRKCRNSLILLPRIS
Nature of the test: two-hybrid; Gal4 BD fusions with Gal4 AD fusions in reporter strains PJ69-4A or CG1945; HIS3 and ADE2 reporters, scored after 2 or 3 days; 5 or 20 mM 3-AT for stringency; also in PJ69-4A with wild-type or F250A Swd2 (reduced in F250A).

Test [3] deals with T3, FLAG-tagged Set1, baculovirus-expressed (bait of the reconstituted Set1/COMPASS) (S. cerevisiae) (UniProt P38827).
T3 sequence: T1 sequence
Nature of the test: co-IP; Set1 complexes reconstituted in Sf9 cells by co-infection with baculoviruses, affinity purified on M2 (anti-FLAG) agarose; Coomassie staining and anti-FLAG, anti-HA immunoblots. A general note: A western blot detects proteins with antibodies after separation by electrophoresis.

B1: Swd2–HA (protein, UniProt P36104 1-329)
chain: MTTVSINKPNLLKFKHVKSFQPQEKDCGPVTSLNFDDNGQFLLTSSSNDTMQLYSATNCKFLDTIASKKYGCHSAIFTHAQNECIYSSTMKNFDIKYLNLETNQYLRYFSGHGALVNDLKMNPVNDTFLSSSYDESVRLWDLKISKPQVIIPSLVPNCIAYDPSGLVFALGNPENFEIGLYNLKKIQEGPFLIIKINDATFSQWNKLEFSNNGKYLLVGSSIGKHLIFDAFTGQQLFELIGTRAFPMREFLDSGSACFTPDGEFVLGTDYDGRIAIWNHSDSISNKVLRPQGFIPCVSHETCPRSIAFNPKYSMFVTADETVDFYVYDE
In the case of B1, the binding result in test [1] was “binds”.

B2: Swd2 Gal4 AD fusion (protein, UniProt P36104 1-329)
chain: B1 chain
As for B2, the binding result in test [2] is “binds”.

B3: Swd2 wild-type, HA-tagged, baculovirus-expressed (protein, UniProt P36104 1-329)
chain: B1 chain
In the case of B3, in test [3], the binding result was “binds”.

B4: Swd2–F250A mutant, HA-tagged, baculovirus-expressed (protein, UniProt P36104 1-329)
chain: B1 chain with F250A
For B4, the binding result in test [3] is on record as “binds”.
